# In the supplement of paper PMC10849652:
# By UniProt entry, the sequences of proteins in these tests, tags left out. Where a name states a change or a piece, a line headed by the entry shows the natural chain unless it says otherwise.
# UniProt P24311, whole entry, looked up: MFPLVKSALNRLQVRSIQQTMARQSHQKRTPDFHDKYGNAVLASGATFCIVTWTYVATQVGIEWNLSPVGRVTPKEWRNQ
# UniProt Q9BWP8: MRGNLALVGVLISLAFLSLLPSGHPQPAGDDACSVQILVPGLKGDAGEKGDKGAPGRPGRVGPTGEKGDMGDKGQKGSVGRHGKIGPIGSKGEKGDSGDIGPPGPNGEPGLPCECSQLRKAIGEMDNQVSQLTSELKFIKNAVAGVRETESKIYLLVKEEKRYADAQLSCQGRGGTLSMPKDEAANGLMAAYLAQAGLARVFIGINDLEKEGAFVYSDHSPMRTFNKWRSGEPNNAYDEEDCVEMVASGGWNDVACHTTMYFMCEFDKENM
# UniProt Q14061: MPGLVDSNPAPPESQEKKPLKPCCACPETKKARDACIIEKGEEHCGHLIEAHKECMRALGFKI
# UniProt Q9H3G5: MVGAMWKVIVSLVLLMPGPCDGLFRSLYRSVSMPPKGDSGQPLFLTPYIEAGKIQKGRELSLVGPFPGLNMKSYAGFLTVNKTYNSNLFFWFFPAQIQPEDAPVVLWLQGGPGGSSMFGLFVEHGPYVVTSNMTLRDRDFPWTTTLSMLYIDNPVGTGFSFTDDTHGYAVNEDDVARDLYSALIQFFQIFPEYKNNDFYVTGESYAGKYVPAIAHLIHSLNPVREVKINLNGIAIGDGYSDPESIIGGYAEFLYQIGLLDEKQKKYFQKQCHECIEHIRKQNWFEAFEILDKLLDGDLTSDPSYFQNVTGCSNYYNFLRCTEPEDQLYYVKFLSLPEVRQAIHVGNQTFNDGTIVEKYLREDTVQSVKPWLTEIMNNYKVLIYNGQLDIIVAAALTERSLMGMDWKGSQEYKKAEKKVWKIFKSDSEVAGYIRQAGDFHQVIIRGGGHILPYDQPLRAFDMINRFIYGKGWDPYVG
# UniProt Q8NHY2, whole entry, looked up: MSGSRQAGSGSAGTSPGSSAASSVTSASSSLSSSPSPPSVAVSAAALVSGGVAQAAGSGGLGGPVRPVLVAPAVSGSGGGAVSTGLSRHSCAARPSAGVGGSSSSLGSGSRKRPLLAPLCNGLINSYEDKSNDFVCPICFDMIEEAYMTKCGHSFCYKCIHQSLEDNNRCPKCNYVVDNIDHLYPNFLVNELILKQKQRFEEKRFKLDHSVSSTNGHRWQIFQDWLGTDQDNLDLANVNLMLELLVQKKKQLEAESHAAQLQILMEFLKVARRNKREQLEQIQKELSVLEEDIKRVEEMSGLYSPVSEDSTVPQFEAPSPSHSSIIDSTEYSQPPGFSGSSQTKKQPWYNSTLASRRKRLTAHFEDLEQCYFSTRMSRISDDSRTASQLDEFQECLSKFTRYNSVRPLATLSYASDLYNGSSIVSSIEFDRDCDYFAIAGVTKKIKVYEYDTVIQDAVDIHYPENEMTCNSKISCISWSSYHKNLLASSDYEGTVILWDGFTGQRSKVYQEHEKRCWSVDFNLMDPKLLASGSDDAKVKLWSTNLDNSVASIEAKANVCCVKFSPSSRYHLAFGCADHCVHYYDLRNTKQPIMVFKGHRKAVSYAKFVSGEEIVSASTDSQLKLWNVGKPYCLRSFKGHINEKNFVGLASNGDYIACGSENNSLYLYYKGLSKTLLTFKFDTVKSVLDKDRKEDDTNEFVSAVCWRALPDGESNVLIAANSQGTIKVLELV
# UniProt Q5TA50: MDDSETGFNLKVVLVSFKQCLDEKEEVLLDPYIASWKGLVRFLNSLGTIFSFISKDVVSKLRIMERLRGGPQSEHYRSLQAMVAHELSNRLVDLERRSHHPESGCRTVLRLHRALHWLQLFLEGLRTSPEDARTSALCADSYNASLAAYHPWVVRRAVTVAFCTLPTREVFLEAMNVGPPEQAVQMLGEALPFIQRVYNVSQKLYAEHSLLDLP
# UniProt Q05707: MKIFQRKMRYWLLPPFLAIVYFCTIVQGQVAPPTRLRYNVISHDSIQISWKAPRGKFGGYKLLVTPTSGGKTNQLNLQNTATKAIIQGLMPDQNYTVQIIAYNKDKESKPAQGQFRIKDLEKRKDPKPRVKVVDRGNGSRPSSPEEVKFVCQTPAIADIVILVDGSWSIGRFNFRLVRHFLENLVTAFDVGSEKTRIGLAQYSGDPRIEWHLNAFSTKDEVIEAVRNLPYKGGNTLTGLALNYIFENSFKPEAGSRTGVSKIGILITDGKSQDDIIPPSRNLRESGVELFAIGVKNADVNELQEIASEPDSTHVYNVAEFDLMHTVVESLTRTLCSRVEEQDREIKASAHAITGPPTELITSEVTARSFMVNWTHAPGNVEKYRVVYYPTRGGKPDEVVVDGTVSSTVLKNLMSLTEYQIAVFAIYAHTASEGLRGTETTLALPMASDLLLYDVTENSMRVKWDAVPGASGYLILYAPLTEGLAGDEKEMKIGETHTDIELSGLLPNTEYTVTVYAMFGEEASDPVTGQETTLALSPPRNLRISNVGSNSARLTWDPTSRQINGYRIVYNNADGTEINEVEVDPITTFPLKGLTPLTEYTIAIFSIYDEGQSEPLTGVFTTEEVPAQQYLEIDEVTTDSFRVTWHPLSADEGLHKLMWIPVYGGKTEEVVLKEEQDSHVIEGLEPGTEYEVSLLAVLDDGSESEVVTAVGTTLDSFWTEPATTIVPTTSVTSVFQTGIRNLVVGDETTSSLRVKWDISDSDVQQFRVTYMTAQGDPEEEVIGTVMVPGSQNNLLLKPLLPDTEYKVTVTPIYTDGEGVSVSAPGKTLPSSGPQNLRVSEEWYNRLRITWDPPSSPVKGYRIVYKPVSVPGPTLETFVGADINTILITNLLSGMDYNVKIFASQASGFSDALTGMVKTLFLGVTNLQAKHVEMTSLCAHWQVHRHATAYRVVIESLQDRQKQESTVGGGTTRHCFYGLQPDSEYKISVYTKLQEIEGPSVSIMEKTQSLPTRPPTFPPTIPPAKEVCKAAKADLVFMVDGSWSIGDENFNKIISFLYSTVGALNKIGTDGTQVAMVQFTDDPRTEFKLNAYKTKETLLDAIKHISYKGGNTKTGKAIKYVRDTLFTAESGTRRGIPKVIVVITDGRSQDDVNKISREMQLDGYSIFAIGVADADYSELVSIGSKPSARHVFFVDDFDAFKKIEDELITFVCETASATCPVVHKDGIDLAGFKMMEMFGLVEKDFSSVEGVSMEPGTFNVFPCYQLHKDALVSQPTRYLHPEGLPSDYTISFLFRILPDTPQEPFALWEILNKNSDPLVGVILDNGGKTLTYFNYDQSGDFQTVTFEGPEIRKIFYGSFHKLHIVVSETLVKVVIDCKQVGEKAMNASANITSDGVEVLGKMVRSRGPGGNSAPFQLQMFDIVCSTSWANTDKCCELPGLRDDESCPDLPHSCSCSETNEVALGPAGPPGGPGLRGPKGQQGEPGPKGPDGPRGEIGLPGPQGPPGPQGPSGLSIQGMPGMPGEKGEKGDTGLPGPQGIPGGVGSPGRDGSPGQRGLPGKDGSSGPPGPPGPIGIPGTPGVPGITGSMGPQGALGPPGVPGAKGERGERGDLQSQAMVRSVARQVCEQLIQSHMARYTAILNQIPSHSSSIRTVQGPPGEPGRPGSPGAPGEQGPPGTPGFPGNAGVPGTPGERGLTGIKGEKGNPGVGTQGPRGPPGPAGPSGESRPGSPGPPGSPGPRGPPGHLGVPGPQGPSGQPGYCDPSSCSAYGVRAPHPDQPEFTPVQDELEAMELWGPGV
# UniProt Q96FN4: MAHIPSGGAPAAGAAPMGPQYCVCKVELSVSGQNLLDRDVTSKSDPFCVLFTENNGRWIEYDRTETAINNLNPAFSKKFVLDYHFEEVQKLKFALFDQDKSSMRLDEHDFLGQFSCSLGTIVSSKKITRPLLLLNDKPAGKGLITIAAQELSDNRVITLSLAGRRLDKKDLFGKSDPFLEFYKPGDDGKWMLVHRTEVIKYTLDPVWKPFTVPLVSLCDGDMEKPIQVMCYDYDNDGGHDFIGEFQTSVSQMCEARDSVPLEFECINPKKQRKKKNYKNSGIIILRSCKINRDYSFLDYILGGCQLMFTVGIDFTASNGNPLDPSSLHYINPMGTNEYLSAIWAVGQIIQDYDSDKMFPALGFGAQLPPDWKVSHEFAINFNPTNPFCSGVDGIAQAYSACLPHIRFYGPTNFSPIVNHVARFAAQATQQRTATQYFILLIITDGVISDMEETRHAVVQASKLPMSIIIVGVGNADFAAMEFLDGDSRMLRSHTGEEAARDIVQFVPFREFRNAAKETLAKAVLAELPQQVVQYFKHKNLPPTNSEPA
# UniProt P61201: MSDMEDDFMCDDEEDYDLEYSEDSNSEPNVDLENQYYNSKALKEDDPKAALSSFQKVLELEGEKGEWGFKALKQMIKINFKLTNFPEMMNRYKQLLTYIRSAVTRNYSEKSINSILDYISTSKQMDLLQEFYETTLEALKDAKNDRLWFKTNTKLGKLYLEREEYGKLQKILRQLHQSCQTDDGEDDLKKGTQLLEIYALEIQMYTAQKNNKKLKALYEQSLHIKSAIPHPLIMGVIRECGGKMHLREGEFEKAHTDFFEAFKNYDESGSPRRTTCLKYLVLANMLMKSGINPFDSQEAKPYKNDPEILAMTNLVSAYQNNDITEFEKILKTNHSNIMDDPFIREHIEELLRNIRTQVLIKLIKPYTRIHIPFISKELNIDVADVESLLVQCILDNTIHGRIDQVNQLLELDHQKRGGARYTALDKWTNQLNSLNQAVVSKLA
# UniProt Q9UNS2: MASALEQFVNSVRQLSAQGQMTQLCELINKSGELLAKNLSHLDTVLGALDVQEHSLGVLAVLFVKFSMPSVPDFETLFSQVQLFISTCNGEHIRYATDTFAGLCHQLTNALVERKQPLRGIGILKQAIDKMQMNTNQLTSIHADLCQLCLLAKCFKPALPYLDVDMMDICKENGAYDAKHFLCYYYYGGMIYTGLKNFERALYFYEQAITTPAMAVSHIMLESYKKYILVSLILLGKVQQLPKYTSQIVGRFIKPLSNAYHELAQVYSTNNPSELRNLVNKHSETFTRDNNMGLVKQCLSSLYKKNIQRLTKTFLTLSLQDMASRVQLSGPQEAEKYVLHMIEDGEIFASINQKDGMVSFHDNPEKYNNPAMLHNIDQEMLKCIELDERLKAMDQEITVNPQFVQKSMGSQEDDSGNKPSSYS
# UniProt P02452, whole entry, looked up: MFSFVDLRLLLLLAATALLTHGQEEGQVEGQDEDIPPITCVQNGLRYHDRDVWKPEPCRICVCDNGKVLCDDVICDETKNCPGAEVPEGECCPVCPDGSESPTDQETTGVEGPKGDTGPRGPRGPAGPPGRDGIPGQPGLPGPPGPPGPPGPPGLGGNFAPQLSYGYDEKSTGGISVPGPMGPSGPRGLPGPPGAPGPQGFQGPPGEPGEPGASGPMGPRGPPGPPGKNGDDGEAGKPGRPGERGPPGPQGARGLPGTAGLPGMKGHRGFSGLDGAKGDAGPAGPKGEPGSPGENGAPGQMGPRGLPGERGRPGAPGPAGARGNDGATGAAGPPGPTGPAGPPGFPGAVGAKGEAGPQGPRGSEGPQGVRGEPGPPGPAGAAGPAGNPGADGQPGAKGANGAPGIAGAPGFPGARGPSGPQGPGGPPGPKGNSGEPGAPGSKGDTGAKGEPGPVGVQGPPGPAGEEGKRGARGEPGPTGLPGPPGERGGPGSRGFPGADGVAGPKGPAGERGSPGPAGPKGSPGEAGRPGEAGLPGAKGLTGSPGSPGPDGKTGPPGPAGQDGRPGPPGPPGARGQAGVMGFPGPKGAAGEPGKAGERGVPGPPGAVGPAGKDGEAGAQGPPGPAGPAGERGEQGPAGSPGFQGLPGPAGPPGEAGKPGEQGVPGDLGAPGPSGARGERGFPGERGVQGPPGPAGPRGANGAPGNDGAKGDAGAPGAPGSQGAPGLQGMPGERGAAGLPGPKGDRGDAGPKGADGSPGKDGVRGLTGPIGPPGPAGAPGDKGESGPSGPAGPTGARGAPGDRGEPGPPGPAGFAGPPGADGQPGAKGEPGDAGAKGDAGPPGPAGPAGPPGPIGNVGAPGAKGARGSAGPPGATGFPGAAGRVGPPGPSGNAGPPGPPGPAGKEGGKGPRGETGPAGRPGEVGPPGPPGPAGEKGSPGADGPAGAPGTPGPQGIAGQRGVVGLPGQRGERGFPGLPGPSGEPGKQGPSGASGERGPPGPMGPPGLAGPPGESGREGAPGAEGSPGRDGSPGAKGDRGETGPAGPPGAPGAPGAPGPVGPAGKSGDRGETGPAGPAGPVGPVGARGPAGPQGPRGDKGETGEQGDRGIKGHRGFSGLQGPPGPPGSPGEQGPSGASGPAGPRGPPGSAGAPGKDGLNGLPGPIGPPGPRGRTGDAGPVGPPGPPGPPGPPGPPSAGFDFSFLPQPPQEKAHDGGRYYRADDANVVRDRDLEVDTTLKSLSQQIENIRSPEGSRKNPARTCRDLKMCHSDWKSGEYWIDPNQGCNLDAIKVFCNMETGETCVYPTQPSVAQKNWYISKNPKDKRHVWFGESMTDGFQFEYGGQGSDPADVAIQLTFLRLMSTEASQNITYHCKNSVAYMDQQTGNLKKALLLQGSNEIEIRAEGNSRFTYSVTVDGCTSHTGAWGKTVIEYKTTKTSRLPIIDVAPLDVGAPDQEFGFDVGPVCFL
# UniProt Q86WW8: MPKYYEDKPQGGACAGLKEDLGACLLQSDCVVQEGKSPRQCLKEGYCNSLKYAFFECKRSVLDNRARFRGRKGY
# This is one part of the list.
# Compound: CCn1cc(-c2ccnc3[nH]c(-c4cccc(CN(C)C)c4)cc23)c(-c2ccc(NC(=O)N(C)C)cc2)n1
# Assay: log2 fold change, soluble protein after heating vs DMSO (PISA); higher = thermal stabilisation; K562 lysate, 10 uM; active = over 0.2 and 3.5 SD of the protein, either way, in both replicates (recomputed)
# How it was run: (§1)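 K562 pellets were dounce-homogenised in PBS pH 7.4 with 1 mM MgCl2, and the crude extract at 1 mg/mL protein was treated with 10 μM compound for 30 min. Aliquots were heated for 3 min across 48°C-58°C, pooled, and brought to 0.5% NP-40 at 4°C; soluble protein was the supernatant after 21,000xg for 90 min. Soluble protein was quantified by TMTpro 16plex LC-MS/MS with channel sums equalised, and reported as log2 fold change in thermal stability against DMSO controls, with values from duplicates.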
row,Target,log2 fold change
1,COX7B (UniProt P24311),inactive: 0.047
2,COLEC11 isoform 10 (UniProt Q9BWP8),inactive: -0.023
3,COL6A3 (UniProt P12111),inactive: 0.254
4,CNNM2 (UniProt Q9H8M5),inactive: -0.059
5,COX17 (UniProt Q14061),inactive: 0.083
6,CPVL (UniProt Q9H3G5),inactive: -0.107
7,COP1 (UniProt Q8NHY2),inactive: -0.269
8,CNK3/IPCEF1 isoform 2 (UniProt G9CGD6),active: -1.81
9,CPTP (UniProt Q5TA50),inactive: -0.01
10,COL14A1 (UniProt Q05707),inactive: 0.157
11,CPNE2 (UniProt Q96FN4),inactive: -0.274
12,CPNE8 (UniProt Q86YQ8),inactive: -0.033
13,CNOT7 (UniProt H0YBT3),inactive: -0.04
14,COMMD6 isoform 2 (UniProt Q7Z4G1),inactive: 0.013
15,COPS2 (UniProt P61201),inactive: 0.015
16,COQ8B (UniProt Q96D53),inactive: 0.013
17,CORO6 isoform 5 (UniProt Q6QEF8),inactive: 0.252
18,COL6A1 (UniProt P12109),inactive: 0.108
19,COPS3 isoform 2 (UniProt Q9UNS2),inactive: -0.142
20,CNTRL (UniProt Q7Z7A1),inactive: -0.062
21,CPA4 (UniProt Q9UI42),inactive: 0.084
22,COL1A1 (UniProt P02452),inactive: 0.009
23,CORO7 (UniProt P57737),inactive: 0.321
24,COA5 (UniProt Q86WW8),inactive: 0.162

# Compound: CN1CCC(CNc2ccc3ncc(-c4cccc(OC(F)(F)F)c4)n3n2)CC1
# Assay: as above
# How it was run: as §1
row,Target,log2 fold change
1,COX7B (UniProt P24311),inactive: -0.013
2,COLEC11 isoform 10 (UniProt Q9BWP8),inactive: -0.025
3,COL6A3 (UniProt P12111),inactive: -0.19
4,CNNM2 (UniProt Q9H8M5),inactive: 0.036
5,COX17 (UniProt Q14061),inactive: -0.055
6,CPVL (UniProt Q9H3G5),inactive: 0.097
7,COP1 (UniProt Q8NHY2),inactive: 0.032
8,CNK3/IPCEF1 isoform 2 (UniProt G9CGD6),inactive: 0.506
9,CPTP (UniProt Q5TA50),inactive: -0.03
10,COL14A1 (UniProt Q05707),inactive: -0.099
11,CPNE2 (UniProt Q96FN4),inactive: 0.219
12,CPNE8 (UniProt Q86YQ8),inactive: 0.126
13,CNOT7 (UniProt H0YBT3),inactive: -0.222
14,COMMD6 isoform 2 (UniProt Q7Z4G1),inactive: -0.087
15,COPS2 (UniProt P61201),inactive: -0.028
16,COQ8B (UniProt Q96D53),inactive: -0.161
17,CORO6 isoform 5 (UniProt Q6QEF8),inactive: -0.067
18,COL6A1 (UniProt P12109),inactive: 0.107
19,COPS3 isoform 2 (UniProt Q9UNS2),inactive: 0.12
20,CNTRL (UniProt Q7Z7A1),inactive: 0.121
21,CPA4 (UniProt Q9UI42),inactive: -0.148
22,COL1A1 (UniProt P02452),inactive: 0.066
23,CORO7 (UniProt P57737),inactive: 0.165
24,COA5 (UniProt Q86WW8),inactive: -0.029
